# Measured values: patent US20130115133A1, “INACTIVATION OF MICROORGANISMS WITH MULTIDRUG RESISTANCE INHIBITORS AND PHENOTHIAZINIUMS” (priority 2004, published 2013)
# Test system: S. aureus NorA-, wild type, and NorA+
# Test: Uptake studies (photosensitizer molecules per cell by extraction and fluorescence)
# Type: cell-based, Staphylococcus aureus
# Conditions: 10 μM
SMILES,uptake (NorA+),uptake (NorA-),uptake (wild-type)
"Cc1cc2nc3ccc(N(C)C)cc3[s+]c2cc1N.[Cl-] [TBO, Toluidine blue O]",0.114±0.016 ×10^9 molecules/cell,1.34±0.32 ×10^9 molecules/cell,0.16±0.02 ×10^9 molecules/cell
"CN(C)c1ccc2nc3ccc(=[N+](C)C)cc-3sc2c1 [MB, methylene blue]",0.021±0.003 ×10^9 molecules/cell,1.22±0.22 ×10^9 molecules/cell,0.06±0.01 ×10^9 molecules/cell
